# Laboratory results taken from PMC8918791.
# By UniProt entry, the sequences of proteins in these tests, tags left out.
# UniProt O88778: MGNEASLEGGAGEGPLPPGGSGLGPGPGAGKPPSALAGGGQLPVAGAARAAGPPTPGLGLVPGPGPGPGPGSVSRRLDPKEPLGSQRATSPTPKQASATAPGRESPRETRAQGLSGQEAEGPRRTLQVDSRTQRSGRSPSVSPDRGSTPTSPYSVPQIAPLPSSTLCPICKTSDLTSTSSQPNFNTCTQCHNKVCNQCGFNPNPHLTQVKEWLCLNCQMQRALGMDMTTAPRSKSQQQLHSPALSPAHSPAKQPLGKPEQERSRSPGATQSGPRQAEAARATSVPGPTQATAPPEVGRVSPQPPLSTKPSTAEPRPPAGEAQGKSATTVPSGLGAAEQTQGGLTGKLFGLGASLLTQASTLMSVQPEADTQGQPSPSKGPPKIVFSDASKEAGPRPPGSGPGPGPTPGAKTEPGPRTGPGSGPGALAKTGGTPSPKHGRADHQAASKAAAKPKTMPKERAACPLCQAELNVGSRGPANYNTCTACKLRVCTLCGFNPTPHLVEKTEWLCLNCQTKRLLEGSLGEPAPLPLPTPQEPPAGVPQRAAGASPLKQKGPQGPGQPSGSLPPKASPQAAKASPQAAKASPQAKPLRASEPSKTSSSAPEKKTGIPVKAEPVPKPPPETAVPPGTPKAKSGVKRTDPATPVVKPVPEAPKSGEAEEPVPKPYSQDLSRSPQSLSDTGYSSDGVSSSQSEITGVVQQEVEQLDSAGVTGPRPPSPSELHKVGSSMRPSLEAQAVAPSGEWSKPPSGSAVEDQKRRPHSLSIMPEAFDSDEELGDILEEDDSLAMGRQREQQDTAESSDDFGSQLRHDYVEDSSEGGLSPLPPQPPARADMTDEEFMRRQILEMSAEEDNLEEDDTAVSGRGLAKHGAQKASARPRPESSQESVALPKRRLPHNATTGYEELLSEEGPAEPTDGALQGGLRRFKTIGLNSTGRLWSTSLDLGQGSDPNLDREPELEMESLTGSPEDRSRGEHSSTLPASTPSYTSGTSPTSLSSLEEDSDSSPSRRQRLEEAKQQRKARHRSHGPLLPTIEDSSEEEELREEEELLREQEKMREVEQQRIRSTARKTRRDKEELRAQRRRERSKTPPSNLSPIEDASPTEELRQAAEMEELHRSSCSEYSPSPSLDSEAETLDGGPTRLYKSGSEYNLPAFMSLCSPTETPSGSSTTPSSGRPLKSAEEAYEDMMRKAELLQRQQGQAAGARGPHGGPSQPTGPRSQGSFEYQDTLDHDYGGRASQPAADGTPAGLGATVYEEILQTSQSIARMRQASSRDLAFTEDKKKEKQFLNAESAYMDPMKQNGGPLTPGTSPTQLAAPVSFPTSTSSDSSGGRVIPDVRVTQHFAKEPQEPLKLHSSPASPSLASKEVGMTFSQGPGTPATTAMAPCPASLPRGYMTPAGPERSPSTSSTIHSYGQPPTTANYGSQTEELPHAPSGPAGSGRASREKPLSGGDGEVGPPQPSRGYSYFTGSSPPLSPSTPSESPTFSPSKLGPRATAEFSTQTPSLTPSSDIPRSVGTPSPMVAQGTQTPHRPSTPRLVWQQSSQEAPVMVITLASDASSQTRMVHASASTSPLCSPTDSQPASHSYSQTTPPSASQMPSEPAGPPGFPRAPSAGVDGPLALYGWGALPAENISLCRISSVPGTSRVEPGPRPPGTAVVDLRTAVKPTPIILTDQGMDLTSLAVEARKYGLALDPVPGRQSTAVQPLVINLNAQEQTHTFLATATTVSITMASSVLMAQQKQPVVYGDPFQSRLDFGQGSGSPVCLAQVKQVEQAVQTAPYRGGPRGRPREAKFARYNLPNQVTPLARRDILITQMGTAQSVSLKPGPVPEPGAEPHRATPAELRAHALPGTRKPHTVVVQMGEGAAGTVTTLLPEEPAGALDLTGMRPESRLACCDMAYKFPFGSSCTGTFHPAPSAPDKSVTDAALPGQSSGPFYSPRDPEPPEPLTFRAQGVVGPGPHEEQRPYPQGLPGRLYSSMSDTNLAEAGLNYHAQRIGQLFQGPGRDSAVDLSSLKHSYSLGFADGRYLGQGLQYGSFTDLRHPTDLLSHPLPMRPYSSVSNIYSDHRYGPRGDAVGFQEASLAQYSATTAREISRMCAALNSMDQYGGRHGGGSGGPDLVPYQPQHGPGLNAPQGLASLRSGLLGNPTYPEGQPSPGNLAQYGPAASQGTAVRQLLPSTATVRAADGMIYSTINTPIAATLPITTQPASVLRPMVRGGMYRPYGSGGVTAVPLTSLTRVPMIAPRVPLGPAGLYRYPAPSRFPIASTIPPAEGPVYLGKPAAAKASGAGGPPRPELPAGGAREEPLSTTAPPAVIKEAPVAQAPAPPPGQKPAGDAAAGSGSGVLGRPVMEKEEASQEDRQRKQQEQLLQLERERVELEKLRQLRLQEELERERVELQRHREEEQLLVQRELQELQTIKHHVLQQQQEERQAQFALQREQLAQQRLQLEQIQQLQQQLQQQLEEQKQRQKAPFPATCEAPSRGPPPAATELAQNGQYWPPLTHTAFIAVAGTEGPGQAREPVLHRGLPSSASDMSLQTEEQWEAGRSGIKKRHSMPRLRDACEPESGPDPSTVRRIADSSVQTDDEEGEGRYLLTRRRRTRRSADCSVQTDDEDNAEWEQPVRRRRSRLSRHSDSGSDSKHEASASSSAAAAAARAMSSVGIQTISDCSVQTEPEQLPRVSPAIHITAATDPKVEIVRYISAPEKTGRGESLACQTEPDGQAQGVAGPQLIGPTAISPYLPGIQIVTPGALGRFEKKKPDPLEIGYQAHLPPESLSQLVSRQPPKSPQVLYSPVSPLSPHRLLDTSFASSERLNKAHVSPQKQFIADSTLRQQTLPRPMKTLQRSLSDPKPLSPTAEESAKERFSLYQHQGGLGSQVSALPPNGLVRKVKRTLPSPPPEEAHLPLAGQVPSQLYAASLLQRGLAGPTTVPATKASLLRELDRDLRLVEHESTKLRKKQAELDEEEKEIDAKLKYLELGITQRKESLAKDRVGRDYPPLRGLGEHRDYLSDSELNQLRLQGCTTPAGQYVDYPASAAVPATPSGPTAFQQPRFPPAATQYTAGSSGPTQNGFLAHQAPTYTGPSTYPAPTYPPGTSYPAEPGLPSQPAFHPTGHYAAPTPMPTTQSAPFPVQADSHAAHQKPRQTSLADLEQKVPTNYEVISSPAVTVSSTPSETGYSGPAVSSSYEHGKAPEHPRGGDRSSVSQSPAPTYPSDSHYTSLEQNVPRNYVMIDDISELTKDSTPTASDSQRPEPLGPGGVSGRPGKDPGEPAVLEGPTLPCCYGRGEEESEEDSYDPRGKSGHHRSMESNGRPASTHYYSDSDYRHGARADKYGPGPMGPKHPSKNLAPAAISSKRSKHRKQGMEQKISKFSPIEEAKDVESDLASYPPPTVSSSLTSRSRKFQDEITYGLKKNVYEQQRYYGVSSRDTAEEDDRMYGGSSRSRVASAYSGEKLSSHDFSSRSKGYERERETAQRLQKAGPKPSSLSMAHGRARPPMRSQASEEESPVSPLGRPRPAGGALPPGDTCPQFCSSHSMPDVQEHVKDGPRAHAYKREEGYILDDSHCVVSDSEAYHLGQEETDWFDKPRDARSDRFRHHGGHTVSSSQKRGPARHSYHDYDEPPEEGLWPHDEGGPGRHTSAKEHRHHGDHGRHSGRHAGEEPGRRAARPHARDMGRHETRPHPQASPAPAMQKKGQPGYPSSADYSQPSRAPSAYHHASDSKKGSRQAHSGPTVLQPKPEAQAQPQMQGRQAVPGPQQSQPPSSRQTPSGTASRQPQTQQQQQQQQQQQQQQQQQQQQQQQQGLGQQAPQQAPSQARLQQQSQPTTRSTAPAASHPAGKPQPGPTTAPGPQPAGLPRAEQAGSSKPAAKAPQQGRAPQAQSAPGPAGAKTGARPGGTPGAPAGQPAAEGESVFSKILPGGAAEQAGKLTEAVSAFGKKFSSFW
# No constants are given. Whether binding was seen depends on the method and setting. In cells and extracts the contact can be indirect. Some entries that bind do so weakly or less than the wild type.
# Molecular target: T1, ELKS (rat (endogenous in INS-1E)) (UniProt Q811U3)
# T1 sequence: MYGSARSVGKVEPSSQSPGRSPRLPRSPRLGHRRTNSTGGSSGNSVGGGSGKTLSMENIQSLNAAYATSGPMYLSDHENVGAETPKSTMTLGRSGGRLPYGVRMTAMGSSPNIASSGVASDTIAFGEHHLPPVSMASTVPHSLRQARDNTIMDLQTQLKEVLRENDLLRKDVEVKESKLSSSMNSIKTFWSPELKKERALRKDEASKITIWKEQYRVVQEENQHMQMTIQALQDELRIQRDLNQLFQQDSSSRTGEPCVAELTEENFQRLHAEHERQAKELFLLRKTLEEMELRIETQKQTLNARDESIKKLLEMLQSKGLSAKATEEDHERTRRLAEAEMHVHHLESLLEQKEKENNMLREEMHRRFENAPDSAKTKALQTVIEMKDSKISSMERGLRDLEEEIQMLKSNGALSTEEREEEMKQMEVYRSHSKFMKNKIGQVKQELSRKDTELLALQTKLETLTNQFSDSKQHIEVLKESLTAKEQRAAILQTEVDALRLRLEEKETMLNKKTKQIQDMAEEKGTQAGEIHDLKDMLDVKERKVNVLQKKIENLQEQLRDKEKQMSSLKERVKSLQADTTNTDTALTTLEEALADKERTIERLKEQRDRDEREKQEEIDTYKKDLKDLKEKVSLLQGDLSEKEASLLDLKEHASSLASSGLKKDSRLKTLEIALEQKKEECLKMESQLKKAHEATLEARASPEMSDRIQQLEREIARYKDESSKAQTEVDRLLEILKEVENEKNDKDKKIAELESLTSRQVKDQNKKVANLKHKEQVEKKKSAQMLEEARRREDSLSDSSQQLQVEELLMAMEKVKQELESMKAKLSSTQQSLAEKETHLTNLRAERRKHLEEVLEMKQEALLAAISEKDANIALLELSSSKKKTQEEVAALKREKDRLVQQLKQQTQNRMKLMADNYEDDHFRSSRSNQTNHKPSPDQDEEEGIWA
# Assay: co-IP; endogenous proteins from INS-1E cell extracts (20 mM Tris-Cl pH 7.5, 150 mM NaCl, 0.5 mM EDTA, 1 mM DTT, 1% Triton X-100), anti-ELKS antibody (Proteintech) on Protein A beads, 4°C; rabbit control serum/IgG as control; western blot
substance,measurement,value
bassoon (from UniProt O88778 1-3938),binding,binds
